From the supplement of paper PMC10849652
Some of the results follow.

The chains behind the UniProt entries cited, without tags or fusion partners. Where a name states a change or a piece, a line headed by the entry shows the natural chain unless it says otherwise.
UniProt A1A5C7: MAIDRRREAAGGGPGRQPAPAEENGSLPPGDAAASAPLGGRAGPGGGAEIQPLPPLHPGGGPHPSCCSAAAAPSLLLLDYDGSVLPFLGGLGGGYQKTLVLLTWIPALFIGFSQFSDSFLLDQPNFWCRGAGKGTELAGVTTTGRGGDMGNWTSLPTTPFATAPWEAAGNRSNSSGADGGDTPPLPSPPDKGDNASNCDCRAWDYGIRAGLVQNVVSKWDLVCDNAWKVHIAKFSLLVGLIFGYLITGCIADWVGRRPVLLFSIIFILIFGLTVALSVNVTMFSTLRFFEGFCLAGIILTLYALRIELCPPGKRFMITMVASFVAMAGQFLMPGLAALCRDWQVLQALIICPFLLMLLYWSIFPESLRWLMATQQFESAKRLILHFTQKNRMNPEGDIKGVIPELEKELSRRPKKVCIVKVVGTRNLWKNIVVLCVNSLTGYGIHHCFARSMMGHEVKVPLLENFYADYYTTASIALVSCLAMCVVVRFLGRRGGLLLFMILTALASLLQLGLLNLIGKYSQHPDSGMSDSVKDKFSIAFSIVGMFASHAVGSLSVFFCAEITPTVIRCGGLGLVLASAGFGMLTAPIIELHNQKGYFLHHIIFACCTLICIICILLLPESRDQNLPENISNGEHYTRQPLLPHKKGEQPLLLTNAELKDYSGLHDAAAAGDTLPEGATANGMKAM
UniProt Q14BN4: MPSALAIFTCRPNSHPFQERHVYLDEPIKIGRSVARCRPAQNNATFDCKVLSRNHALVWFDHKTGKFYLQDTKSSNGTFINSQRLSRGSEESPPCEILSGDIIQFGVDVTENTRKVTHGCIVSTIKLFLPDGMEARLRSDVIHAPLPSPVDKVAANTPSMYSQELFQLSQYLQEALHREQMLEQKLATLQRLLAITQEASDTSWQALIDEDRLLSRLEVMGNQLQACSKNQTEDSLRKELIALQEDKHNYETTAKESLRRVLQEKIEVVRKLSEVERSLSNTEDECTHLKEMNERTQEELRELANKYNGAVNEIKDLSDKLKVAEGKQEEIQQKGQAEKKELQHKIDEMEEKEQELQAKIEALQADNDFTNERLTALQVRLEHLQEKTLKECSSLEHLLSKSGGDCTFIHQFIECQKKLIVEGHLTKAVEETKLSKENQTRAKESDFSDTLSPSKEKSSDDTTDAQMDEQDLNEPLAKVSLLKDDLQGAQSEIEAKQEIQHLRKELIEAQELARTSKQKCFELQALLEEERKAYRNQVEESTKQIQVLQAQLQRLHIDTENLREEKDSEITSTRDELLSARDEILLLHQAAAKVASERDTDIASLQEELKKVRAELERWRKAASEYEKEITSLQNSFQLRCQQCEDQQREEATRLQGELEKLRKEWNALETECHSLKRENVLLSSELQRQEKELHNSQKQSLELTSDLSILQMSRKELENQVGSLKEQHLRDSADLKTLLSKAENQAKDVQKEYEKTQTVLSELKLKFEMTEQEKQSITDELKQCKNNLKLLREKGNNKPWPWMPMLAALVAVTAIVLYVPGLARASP
UniProt Q9BXS9: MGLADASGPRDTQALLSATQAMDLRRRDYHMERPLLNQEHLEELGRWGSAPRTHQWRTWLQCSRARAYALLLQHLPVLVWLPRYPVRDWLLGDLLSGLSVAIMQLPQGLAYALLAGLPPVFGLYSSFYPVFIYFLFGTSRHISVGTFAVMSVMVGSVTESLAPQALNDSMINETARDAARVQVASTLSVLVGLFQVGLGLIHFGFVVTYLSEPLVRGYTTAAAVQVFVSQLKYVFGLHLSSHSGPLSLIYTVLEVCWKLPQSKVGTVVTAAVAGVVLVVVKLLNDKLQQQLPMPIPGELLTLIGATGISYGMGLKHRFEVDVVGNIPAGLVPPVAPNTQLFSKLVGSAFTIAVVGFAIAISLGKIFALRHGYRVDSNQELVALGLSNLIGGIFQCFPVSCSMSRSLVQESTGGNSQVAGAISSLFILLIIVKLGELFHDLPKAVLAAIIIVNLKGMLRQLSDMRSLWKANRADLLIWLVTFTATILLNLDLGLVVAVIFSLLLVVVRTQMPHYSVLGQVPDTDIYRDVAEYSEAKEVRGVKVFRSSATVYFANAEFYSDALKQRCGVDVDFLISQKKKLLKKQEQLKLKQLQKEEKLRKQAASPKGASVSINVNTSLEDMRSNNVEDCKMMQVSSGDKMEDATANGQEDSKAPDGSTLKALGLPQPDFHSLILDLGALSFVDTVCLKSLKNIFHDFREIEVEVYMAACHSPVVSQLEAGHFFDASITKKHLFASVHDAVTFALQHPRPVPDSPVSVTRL
UniProt P51531, whole entry, looked up: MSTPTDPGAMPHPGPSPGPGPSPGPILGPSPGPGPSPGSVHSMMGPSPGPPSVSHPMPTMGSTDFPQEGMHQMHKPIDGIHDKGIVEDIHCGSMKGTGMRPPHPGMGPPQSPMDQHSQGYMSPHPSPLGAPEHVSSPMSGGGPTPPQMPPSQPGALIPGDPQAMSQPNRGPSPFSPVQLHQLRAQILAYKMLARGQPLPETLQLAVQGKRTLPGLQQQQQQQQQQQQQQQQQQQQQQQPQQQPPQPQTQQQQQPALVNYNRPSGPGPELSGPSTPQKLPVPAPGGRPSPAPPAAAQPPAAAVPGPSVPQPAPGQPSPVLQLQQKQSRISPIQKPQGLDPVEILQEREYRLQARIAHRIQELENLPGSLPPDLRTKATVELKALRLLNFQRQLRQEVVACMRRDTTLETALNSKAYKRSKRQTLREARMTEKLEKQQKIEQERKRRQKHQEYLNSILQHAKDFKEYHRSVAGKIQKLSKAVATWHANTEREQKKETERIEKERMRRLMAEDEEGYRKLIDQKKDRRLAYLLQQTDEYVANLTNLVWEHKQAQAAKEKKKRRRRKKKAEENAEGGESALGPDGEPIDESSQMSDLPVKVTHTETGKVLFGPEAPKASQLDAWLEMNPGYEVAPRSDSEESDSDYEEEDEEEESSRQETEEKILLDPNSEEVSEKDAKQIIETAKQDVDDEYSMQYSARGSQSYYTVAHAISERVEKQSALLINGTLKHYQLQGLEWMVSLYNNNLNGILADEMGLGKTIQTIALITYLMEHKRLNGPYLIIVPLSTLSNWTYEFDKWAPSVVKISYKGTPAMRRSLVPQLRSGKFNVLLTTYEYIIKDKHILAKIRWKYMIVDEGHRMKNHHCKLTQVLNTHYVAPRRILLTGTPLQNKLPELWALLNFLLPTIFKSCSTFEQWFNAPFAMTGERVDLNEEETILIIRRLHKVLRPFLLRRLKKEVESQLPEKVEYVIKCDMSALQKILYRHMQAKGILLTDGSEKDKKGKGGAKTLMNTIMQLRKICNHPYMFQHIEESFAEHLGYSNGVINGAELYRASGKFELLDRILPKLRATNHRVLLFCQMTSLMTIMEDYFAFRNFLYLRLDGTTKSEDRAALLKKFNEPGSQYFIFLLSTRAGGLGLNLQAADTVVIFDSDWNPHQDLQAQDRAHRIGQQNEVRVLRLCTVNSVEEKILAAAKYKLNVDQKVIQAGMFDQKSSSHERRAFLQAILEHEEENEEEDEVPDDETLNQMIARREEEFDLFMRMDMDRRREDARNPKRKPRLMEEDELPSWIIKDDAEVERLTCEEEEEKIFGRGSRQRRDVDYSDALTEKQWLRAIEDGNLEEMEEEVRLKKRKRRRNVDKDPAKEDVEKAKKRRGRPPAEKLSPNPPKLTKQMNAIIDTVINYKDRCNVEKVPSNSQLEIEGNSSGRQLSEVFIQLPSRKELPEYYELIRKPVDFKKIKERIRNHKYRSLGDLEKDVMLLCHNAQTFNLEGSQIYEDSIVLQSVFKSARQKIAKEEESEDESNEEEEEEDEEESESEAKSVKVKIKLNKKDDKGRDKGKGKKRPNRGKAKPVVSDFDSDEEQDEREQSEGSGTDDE
UniProt Q9H2G2: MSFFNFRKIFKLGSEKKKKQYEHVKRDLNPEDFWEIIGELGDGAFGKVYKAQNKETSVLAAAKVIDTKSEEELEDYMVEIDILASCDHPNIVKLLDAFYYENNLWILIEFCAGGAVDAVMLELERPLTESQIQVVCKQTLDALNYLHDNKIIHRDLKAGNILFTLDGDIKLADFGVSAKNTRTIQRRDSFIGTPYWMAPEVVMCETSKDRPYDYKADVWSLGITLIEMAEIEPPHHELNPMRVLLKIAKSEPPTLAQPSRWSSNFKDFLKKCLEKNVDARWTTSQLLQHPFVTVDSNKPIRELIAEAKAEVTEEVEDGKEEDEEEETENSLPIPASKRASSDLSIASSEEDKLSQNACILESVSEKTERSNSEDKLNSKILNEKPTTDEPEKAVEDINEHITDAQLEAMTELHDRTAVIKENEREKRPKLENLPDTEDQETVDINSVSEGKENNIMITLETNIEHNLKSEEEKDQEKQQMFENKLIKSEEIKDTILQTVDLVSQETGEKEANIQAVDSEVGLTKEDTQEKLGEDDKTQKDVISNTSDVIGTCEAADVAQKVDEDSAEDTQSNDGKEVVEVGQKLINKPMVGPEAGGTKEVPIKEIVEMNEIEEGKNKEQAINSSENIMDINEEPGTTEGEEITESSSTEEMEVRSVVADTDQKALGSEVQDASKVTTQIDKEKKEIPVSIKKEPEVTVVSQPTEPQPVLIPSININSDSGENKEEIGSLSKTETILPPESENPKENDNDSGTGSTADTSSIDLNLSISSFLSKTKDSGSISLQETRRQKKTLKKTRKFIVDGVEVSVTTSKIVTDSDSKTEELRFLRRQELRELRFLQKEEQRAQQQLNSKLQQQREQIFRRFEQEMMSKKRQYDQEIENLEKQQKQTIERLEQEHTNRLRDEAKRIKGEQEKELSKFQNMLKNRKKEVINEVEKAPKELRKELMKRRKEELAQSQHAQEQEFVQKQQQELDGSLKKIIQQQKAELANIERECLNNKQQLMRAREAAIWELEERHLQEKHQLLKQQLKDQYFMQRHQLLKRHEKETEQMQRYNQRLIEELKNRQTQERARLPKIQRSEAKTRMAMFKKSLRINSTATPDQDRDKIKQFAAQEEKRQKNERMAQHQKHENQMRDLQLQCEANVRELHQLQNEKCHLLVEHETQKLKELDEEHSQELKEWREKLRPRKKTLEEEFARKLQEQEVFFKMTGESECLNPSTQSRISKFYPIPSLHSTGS
UniProt Q8IWA5: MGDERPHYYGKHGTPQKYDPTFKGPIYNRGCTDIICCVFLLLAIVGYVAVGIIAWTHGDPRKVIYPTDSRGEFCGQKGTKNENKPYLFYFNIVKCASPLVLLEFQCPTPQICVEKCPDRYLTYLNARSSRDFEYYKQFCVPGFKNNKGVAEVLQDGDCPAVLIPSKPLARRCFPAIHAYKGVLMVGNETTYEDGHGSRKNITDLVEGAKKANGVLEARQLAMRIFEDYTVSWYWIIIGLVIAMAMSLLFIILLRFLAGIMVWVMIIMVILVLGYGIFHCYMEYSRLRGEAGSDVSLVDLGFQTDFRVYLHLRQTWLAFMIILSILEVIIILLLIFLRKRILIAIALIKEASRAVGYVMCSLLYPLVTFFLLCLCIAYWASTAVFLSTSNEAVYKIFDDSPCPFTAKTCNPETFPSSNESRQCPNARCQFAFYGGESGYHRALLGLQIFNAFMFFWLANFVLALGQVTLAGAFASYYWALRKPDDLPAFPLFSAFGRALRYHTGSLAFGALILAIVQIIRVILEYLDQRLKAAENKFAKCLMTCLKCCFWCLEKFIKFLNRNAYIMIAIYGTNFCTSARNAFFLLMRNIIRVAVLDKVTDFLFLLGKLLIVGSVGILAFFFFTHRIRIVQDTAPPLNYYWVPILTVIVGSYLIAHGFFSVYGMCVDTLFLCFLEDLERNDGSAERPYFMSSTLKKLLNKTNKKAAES
UniProt Q9BSK2: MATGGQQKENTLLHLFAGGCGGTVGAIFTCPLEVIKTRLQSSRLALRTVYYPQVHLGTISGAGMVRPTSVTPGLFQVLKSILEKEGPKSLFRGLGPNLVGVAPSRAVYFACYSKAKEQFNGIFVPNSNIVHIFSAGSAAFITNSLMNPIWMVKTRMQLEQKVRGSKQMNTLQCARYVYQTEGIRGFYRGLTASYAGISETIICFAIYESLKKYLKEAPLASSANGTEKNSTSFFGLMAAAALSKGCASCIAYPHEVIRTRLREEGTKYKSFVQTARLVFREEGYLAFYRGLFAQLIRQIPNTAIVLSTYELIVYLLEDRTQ
UniProt P12235: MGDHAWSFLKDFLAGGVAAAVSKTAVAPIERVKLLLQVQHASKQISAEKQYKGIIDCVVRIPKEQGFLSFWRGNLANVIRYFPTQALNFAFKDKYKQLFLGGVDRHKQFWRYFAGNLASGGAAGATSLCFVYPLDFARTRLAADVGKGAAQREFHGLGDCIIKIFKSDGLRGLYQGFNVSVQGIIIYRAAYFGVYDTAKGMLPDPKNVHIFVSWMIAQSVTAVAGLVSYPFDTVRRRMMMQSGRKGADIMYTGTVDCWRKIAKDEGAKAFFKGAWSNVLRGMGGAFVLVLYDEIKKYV

Columns and labels:
Test in all cases: log2 fold change, soluble protein after heating vs DMSO (PISA); higher = thermal stabilisation; K562 lysate, 10 uM; active = over 0.2 and 3.5 SD of the protein, either way, in both replicates (recomputed)
erlotinib = compound: C#Cc1cccc(Nc2ncnc3cc(OCCOC)c(OCCOC)cc23)c1 [erlotinib]
Outline: (§1)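 Quantification was by TMTpro 16plex LC-MS/MS with equalised channel sums, applied to the supernatant after 21,000xg for 90 min. Samples were crude K562 extract at 1 mg/mL protein in PBS pH 7.4 with 1 mM MgCl2, treated with 10 μM compound for 30 min, heated for 3 min across 48°C-58°C, pooled and brought to 0.5% NP-40 at 4°C. Values are log-two fold changes in thermal stability relative to solvent controls, from duplicates.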

[1] = compound: C/C(=N\NC(=O)C1=CC(=CC=C1)S(=O)(=O)N2CCOCC2)/C3=C(C=CC(=C3)Cl)O
Outline: as §1

[2] = compound: C1=CC(=CC=C1C2=NC3=C(N2)C=C(C=C3)C(=O)N)OC4=CC=C(C=C4)Cl
Outline: as §1

[3] = compound: C1=CC2=C(C=CC(=C2)/C=C\3/C(=O)NC(=NCC4=CC=CS4)S3)N=C1
Outline: as §1

[4] = compound: C1=CC2=NC=CN=C2C=C1/C=C/3\C(=O)NC(=O)S3
Outline: as §1

[5] = compound: C1=CC=C(C=C1)C2=NC(=C(N2)C3=CC=NC=C3)C4=CC(=C(C=C4)Cl)O
Outline: as §1

[6] = compound: C1=CC=C2C(=C1)C3=NNC4=CC=CC(=C43)C2=O
Outline: as §1

[7] = compound: C1CCN(C1)C(=O)NC2=CC=CC(=C2)NC3=NC=C(C(=N3)NCCC4=CN=CN4)Br
Outline: as §1

[8] = compound: C1CN(CCC1(CC2=CC=C(C=C2)Cl)N)C3=NC=NC4=C3C=CN4
Outline: as §1

IRAK-1-4 Inhibitor I = compound: C1COCCN1CCN2C3=CC=CC=C3N=C2NC(=O)C4=CC(=CC=C4)[N+](=O)[O-] [IRAK-1-4 Inhibitor I]
Outline: as §1

Measured: log2 fold change

SLC2A4 (UniProt P14672)
inactive: erlotinib -0.077 | [1] 0.126 | [2] 0.091 | [3] 0.039 | [4] 0.064 | [5] -0.117 | [6] -0.33 | [7] 0.069 | [8] -0.03 | IRAK-1-4 Inhibitor I 0.045

SLC25A26 (UniProt Q70HW3)
inactive: erlotinib -0.003 | [1] -0.278 | [2] -0.028 | [3] -0.023 | [4] -0.058 | [5] 0.09 | [6] 0.033 | [7] -0.06 | [8] 0.067 | IRAK-1-4 Inhibitor I 0.06

SLIRP (UniProt Q9GZT3)
inactive: erlotinib -0.021 | [1] -0.016 | [2] 0.046 | [3] -0.048 | [4] 0.01 | [5] -0.009 | [6] -0.038 | [7] -0.005 | [8] 0.03 | IRAK-1-4 Inhibitor I 0.031

SLC22A23 (UniProt A1A5C7)
inactive: erlotinib -0.045 | [1] 0.048 | [2] 0.076 | [3] -0.058 | [4] 0.002 | [5] 0.057 | [6] 0.08 | [7] -0.008 | [8] 0.016 | IRAK-1-4 Inhibitor I 0.122

SMAD9 (UniProt O15198)
inactive: erlotinib 0.005 | [1] 0.048 | [2] -0.037 | [3] 0.007 | [4] 0.018 | [5] 0.053 | [6] 0.017 | [7] -0.048 | [8] -0.059 | IRAK-1-4 Inhibitor I 0

SLC25A11 (UniProt Q02978)
inactive: erlotinib -0.012 | [1] -0.102 | [2] -0.023 | [3] 0 | [4] 0.02 | [5] -0.009 | [6] -0.036 | [7] -0.02 | [8] -0.005 | IRAK-1-4 Inhibitor I 0.033

SLC25A46 (UniProt Q96AG3)
inactive: erlotinib 0.01 | [1] 0.047 | [2] -0.006 | [3] -0.03 | [4] -0.088 | [5] -0.016 | [6] 0 | [7] -0.004 | [8] 0.027 | IRAK-1-4 Inhibitor I 0.039

SLMAP isoform 3 (UniProt Q14BN4)
inactive: erlotinib 0.003 | [1] -0.029 | [2] -0.026 | [3] -0.014 | [4] -0.036 | [5] 0.05 | [6] -0.006 | [7] -0.048 | [8] -0.039 | IRAK-1-4 Inhibitor I -0.009

SLC45A4 isoform 3 (UniProt Q5BKX6)
inactive: erlotinib 0.027 | [1] -0.006 | [2] -0.014 | [3] -0.006 | [4] 0.015 | [5] 0.02 | [6] -0.086 | [7] 0.053 | [8] 0.039 | IRAK-1-4 Inhibitor I -0.012

2 entries picked at random from the list so far, as already listed:
SLC25A11 (UniProt Q02978)
inactive: erlotinib -0.012 | [1] -0.102 | [2] -0.023 | [3] 0 | [4] 0.02 | [5] -0.009 | [6] -0.036 | [7] -0.02 | [8] -0.005 | IRAK-1-4 Inhibitor I 0.033

SMAD9 (UniProt O15198)
inactive: erlotinib 0.005 | [1] 0.048 | [2] -0.037 | [3] 0.007 | [4] 0.018 | [5] 0.053 | [6] 0.017 | [7] -0.048 | [8] -0.059 | IRAK-1-4 Inhibitor I 0

The listing continues:

SLC26A6 (UniProt Q9BXS9)
inactive: erlotinib -0.04 | [1] -0.117 | [2] 0.024 | [3] -0.018 | [4] -0.044 | [5] 0.032 | [6] -0.114 | [7] -0.13 | [8] 0.087 | IRAK-1-4 Inhibitor I -0.062

SMAD2 (UniProt Q15796)
inactive: erlotinib 0.14 | [1] 0.062 | [2] -0.018 | [3] 0.03 | [4] 0.002 | [5] 0.074 | [6] -0.003 | [7] 0.004 | [8] 0.035 | IRAK-1-4 Inhibitor I -0.03

SLC25A24 (UniProt Q6NUK1)
inactive: erlotinib -0.006 | [1] -0.005 | [2] 0.024 | [3] 0.022 | [4] 0.007 | [5] -0.013 | [6] 0.012 | [7] -0.001 | [8] -0.016 | IRAK-1-4 Inhibitor I -0.021

SLC52A2 (UniProt Q9HAB3)
inactive: erlotinib -0.06 | [1] -0.262 | [2] -0.082 | [3] 0.025 | [4] 0.023 | [5] -0.025 | [6] 0.09 | [7] -0.046 | [8] 0.012 | IRAK-1-4 Inhibitor I 0.051

SMARCA2 (UniProt P51531)
inactive: erlotinib -0.011 | [1] -0.039 | [2] -0.005 | [3] 0.133 | [4] -0.006 | [5] 0.003 | [6] -0.058 | [7] 0 | [8] 0.115 | IRAK-1-4 Inhibitor I -0.005

SLC25A19 (UniProt Q9HC21)
inactive: erlotinib 0.021 | [1] -0.041 | [2] -0.041 | [3] -0.003 | [4] -0.008 | [5] -0.022 | [6] -0.056 | [7] -0.034 | [8] -0.04 | IRAK-1-4 Inhibitor I 0.009

SLC7A11 (UniProt Q9UPY5)
inactive: erlotinib -0.079 | [1] 0.003 | [2] 0.086 | [3] -0.02 | [4] -0.019 | [5] -0.041 | [6] -0.036 | [7] 0.026 | [8] -0.009 | IRAK-1-4 Inhibitor I 0.025

SLC33A1 (UniProt O00400)
inactive: erlotinib -0.071 | [1] -0.037 | [2] -0.045 | [3] 0.024 | [4] -0.021 | [5] -0.045 | [6] -0.047 | [7] -0.019 | [8] -0.002 | IRAK-1-4 Inhibitor I 0.032

SLK isoform 2 (UniProt Q9H2G2)
inactive: erlotinib 0.115 | [1] -0.018 | [2] -0.026 | [3] 0.064 | [4] 0.068 | [5] 0.081 | [6] 0.007 | [7] 0.045 | [8] 0.021 | IRAK-1-4 Inhibitor I 0.001

SLC44A2 (UniProt Q8IWA5)
inactive: erlotinib -0.059 | [1] 0.013 | [2] 0.045 | [3] -0.013 | [4] 0.026 | [5] -0.008 | [6] 0.01 | [7] -0.046 | [8] 0.048 | IRAK-1-4 Inhibitor I 0.069

SMAP (UniProt O00193)
inactive: erlotinib 0.007 | [1] 0.008 | [2] 0.066 | [3] -0.016 | [4] -0.001 | [5] 0 | [6] 0.009 | [7] 0.061 | [8] 0.013 | IRAK-1-4 Inhibitor I -0.01

SLC4A1 (UniProt P02730)
inactive: erlotinib -0.118 | [1] 0.077 | [2] 0.083 | [3] 0.085 | [4] -0.007 | [5] -0.015 | [6] -0.027 | [7] 0.077 | [8] 0.013 | IRAK-1-4 Inhibitor I 0.132

SLC39A3 (UniProt Q9BRY0)
inactive: erlotinib 0.047 | [1] 0.045 | [2] -0.014 | [3] -0.003 | [4] 0.014 | [5] -0.033 | [6] 0.025 | [7] 0.023 | [8] 0.064 | IRAK-1-4 Inhibitor I -0.062

SLC36A1 (UniProt Q7Z2H8)
inactive: erlotinib -0.092 | [1] -0.17 | [2] 0.066 | [3] -0.014 | [4] 0.093 | [5] -0.087 | [6] -0.182 | [7] -0.19 | [8] 0.174 | IRAK-1-4 Inhibitor I -0.063

SLC25A33 (UniProt Q9BSK2)
inactive: erlotinib 0.015 | [1] 0.029 | [2] -0.05 | [3] 0.025 | [4] -0.011 | [5] 0.041 | [6] -0.061 | [7] 0.04 | [8] -0.012 | IRAK-1-4 Inhibitor I 0.024

SLC7A6 (UniProt Q92536)
inactive: erlotinib 0.085 | [1] -0.049 | [2] 0.079 | [3] -0.073 | [4] -0.049 | [5] -0.026 | [6] 0.003 | [7] -0.095 | [8] 0.086 | IRAK-1-4 Inhibitor I 0.046

SLC4A1AP (UniProt Q9BWU0)
inactive: erlotinib -0.014 | [1] -0.047 | [2] 0.013 | [3] 0.005 | [4] -0.013 | [5] -0.001 | [6] -0.023 | [7] -0.015 | [8] 0.002 | IRAK-1-4 Inhibitor I 0.001

SLC25A4 (UniProt P12235)
inactive: erlotinib -0.019 | [1] 0.051 | [2] 0.01 | [3] -0.026 | [4] 0.016 | [5] -0.028 | [6] 0.041 | [7] 0.001 | [8] -0.073 | IRAK-1-4 Inhibitor I 0.002
